Data from patent publication US20260097091A1, “ADMINISTRATION OF GLUTATHIONE TRISULFIDE TO AMELIORATE PERIPHERAL NEUROPATHY” (The General Hospital Corporation, priority 2022, published 2026).

Tested on: sciatic nerve
Experiment: toluidine blue staining of sciatic nerve (myelinated axons, G-ratio)
Type: in vivo, mice (C57BL/6J)
Details: 4 weeks; for number of myelinated neurons in sciatic nerve: paclitaxel alone or paclitaxel with GSSSG 50 mg/kg/day oral, vs control; for thickness of myelin (G-ratio): paclitaxel without or with GSSSG 50 mg/kg/day oral
Description: Paclitaxel (Sigma-Aldrich) was dissolved with ethanol and cremophor (1:1) and diluted with normal saline (1:4). Peripheral neuropathy was induced in mice by intraperitoneal (i.p.) administration of 4 mg/kg paclitaxel every other day for a total of 4 injections (cumulative dose of 16 mg/kg), according to a previously described protocol. A stable, crystallized form of GSSSG was produced and provided by Kyowa Hakko Bio CO., LTD. GSSSG was pulverized and mixed in 0.5% methylcellulose. To evaluate the therapeutic effects of GSSSG in a model of PIPN, mice were randomly divided into three groups of 6. Mice were treated with: 1) paclitaxel alone; 2) paclitaxel and GSSSG; 3) or vehicle alone (control). Mice in groups 1 and 2 received paclitaxel as described above, while mice in the control group received the same volume of vehicle. The first dose of GSSSG was given within 1 hour after the first PTX injection. Treatment was administered as oral gavage for 28 days with GSSSG at 50 mg/kg/day (group 2) or 0.5% methylcellulose (groups 1 and 3). The dose of GSSSG was determined based on pilot studies. To determine the effect of GSSSG on the development of PIPN, behavioral tests to assess allodynia and hyperalgesia were conducted on all mice on days-1 (baseline), 7, 14, 21, and 28 after paclitaxel administration. Behavioral tests were performed by an investigator who was blinded to the treatment groups, as described in the next section.
Four weeks after paclitaxel treatment, sciatic nerves were evaluated by toluidine blue staining as described previously. Briefly, mice were deeply anesthetized, and their sciatic nerves were exposed in the prone position. Sciatic nerve was covered with Trump's fixative (Quimigen, Cat No. 11750) for 10 minutes. Subsequently, it was harvested and fixed in the same fixative for one week by changing the fixative every other day. Samples were immersed in 2% osmium tetroxide (TGI, Cat No. O0308) for 2 hours and embedded in Resin-Epoxy medium (Sigma-Aldrich, Cat No. 45359-4) overnight at 60° C. by following the protocol provided by the manufacturer. The embedded nerve block was sectioned at 1 μm by an ultramicrotome (Reichert-Jung, Ultracut E, Austria) and stained in 1% toluidine blue (Sigma-Aldrich, Cat No. T3260). Two images per mouse (6 mice per group) were taken by light microscopy (Nikon Eclipse 80i, Nikon Instruments, Inc., Melville, NY) and analyzed by ImageJ. Thickness of myeline was evaluated by G-ratio, a ratio of inner radius over outer radius. G-ratio was calculated using GRatio software, an ImageJ plugin available online (http://gratio.efil.de/) that converts inner and outer perimeter of myelin to the radius. Counting neurons and measuring the size were conducted by an examiner who was blinded to the treatment of mice.

CC(=O)O[C@H]1C(=O)[C@@]2(C)[C@H]([C@H](OC(=O)c3ccccc3)[C@]3(O)C[C@H](OC(=O)[C@H](O)[C@@H](NC(=O)c4ccccc4)c4ccccc4)C(C)=C1C3(C)C)[C@]1(OC(C)=O)CO[C@@H]1C[C@@H]2O [paclitaxel, Paclitaxel, reference compound]
number of myelinated neurons in sciatic nerve: similar
thickness of myelin (G-ratio): not affected

N[C@@H](CCC(=O)N[C@@H](CSSSC[C@H](NC(=O)CC[C@H](N)C(=O)O)C(=O)NCC(=O)O)C(=O)NCC(=O)O)C(=O)O [GSSSG, glutathione trisulfide]
number of myelinated neurons in sciatic nerve: similar
thickness of myelin (G-ratio): not affected
